Assay results reported in patent publication US20020081614, “Functional genomics using zinc finger proteins” (Sangamo BioSciences, Inc., published 2002).

Tested on: T1, RAN control ZFP-VP16 (pcV-RAN) (synthetic construct)
T1 sequence: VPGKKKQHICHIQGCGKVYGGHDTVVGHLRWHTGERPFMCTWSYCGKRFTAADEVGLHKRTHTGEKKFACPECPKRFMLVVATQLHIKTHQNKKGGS
Assay: activity in cells
Conditions: baseline control with no known DNA binding capability; fold 1 by definition; protein in cells; protein details: NLS, HSV VP16 activation domain, Flag; variant of M6-1892S site; only the site is given; counted as no effect

GGGGTTGAG (double strand) [reporter with three tandem M6-1892S sites (pGLP-VF471x3)]
activity on this sequence (fold activation): 1

For at least one entry, the source does not settle the construct or the ends of the probe. Protein sequences can lack the tags named with them.
